Experimental data: PubChem BioAssay AID1508588 (Peter MacCallum Cancer Centre, 2020)
Test: 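Genome-wide search for knock-downs that heighten vemurafenib action in melanoma cells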 (primary screen). System: human WM266.4 melanoma cells (BRAF V600 mutant). Reagent: siRNA pool against human genes, 40 nM. Duration: 96 h from transfection to read-out. Challenge: vemurafenib 300 nM (about IC25), added 48 h after transfection, for 48 h; comparison arm got DMSO vehicle only. Measurement: 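Cell gain (DAPI nuclei at end minus before drug, mean of two replicates) and medium lactate by absorbance per cell, both as ratio to non-targeting siRNA, also grouped into fold-change classes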. Reading the numbers: cell gain with vemurafenib: higher = more cell gain than with non-targeting siRNA; lactate per cell with vemurafenib: higher = more lactate made per cell. Rule for the call: 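a knock-down counts as enhancing when its fold-change classes with vehicle and with vemurafenib, taken together, show a stronger drug effect on cell gain or lactate per cell; exact class pairs not stated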. Meaning of the calls: active = enhances vemurafenib effect; inactive = no enhancement seen.
In all, the deposit lists about 18,000 reagents; shown is a random part of them. 790 of all reagents (4.4%) count as active. 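Calls rest on a combination of fold-change classes in drug and vehicle arms, not all shown here.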 No sequences are given here.

| Gene | cell gain with vemurafenib | lactate per cell with vemurafenib | Call |
| --- | --- | --- | --- |
| PAXIP1 | 0.21 | 1.11 | inactive |
| AVPR2 | -0.02 | 0.96 | inactive |
| NRL | 0.39 | 0.94 | inactive |
| RASSF6 | 0.72 | 0.74 | inactive |
| TMEM178A | 1.02 | 0.97 | inactive |
| ORMDL3 | 0.26 | 1.36 | inactive |
| TDRD10 | 0.92 | 0.35 | inactive |
| CHD1L | 0.6 | 1.52 | inactive |
| ARHGEF9 | 0.39 | 2.29 | inactive |
| CAPNS1 | 0.7 | 0.79 | inactive |
| GPRC5C | 0.37 | 1.82 | inactive |
| NAB1 | 0.5 | 1.05 | inactive |
| ELP6 | 0.19 | 0.42 | inactive |
| RBM25 | 0.22 | 1.94 | inactive |
| LCE2C | 0.77 | 0.73 | inactive |
| PSMG2 | 0.64 | 0.59 | inactive |
| MROH2B | 0.24 | 1.99 | inactive |
| OR5M1 | 0.75 | 0.55 | inactive |
| AOAH | 0.35 | 0.84 | inactive |
| PCDHGA3 | 1.01 | 0.82 | inactive |
| MFAP3 | 0.48 | 0.46 | active |
| IL15 | 0.74 | 0.64 | inactive |
| WFDC8 | 0.41 | 1.39 | inactive |
| ADA2 | 0.28 | 1.19 | inactive |
| RPL41 | 0.99 | 0.64 | inactive |
| DUSP29 | 0.69 | 0.83 | inactive |
| JRK | 0.28 | 0.37 | active |
| ARVCF | 0.89 | 0.64 | inactive |

Part of the list above, reduced to “cell gain with vemurafenib”.
ARHGEF9: 0.39
CAPNS1: 0.7
GPRC5C: 0.37
NAB1: 0.5
ELP6: 0.19
RBM25: 0.22
LCE2C: 0.77

Additional reagents follow.
| Gene | cell gain with vemurafenib | lactate per cell with vemurafenib | Call |
| --- | --- | --- | --- |
| FOXG1 | 0.76 | 0.76 | inactive |
| SAC3D1 | 0.97 | 0.96 | inactive |
| IL13 | 0.61 | 0.55 | inactive |
| MKS1 | -0.25 | 2.84 | inactive |
| ARHGAP21 | 0.45 | 1.75 | inactive |
| PDZD9 | 0.32 | 1.19 | inactive |
| CNST | 0.6 | 0.6 | inactive |
| FOSL1 | 1.03 | 0.88 | inactive |
| RTL4 | 0.69 | 0.89 | inactive |
| ERBIN | 0.38 | 0.72 | inactive |
| PRDM7 | 0.95 | 0.38 | inactive |
| APOL1 | 0.45 | 0.92 | inactive |
| CCL20 | 0.95 | 0.6 | inactive |
| ARL15 | 0.51 | 0.98 | inactive |
| C17orf67 | 0.2 | 1.29 | inactive |
| FBXO46 | 0.66 | 1.5 | inactive |
| EPHA2 | 1.3 | 0.92 | inactive |
| SP3 | 0.13 | 2.35 | inactive |
| GAPVD1 | 1.12 | 0.8 | inactive |
| CLNK | 0.29 | 0.9 | inactive |
| CARS2 | 1.06 | 0.58 | inactive |
| NMRK1 | 0.77 | 0.47 | inactive |
| BGLAP | 0.56 | 0.88 | inactive |
| OAS1 | 0.85 | 1.56 | inactive |
| TMEM179 | 0.7 | 0.42 | inactive |
| TRIM59 | 0.99 | 0.99 | inactive |
| ZNF676 | 0.1 | 0.93 | inactive |
| ULK3 | 0.74 | 1.06 | inactive |
| MMP23B | 0.83 | 1.4 | inactive |
| ZNF114 | 0.66 | 0.6 | inactive |
| KIF1A | 0.39 | 1.62 | inactive |
| UBE2E2 | 1.21 | 0.55 | inactive |
| EIF4A3 | -0.12 | 0.34 | active |
| PMM1 | 0.27 | 2 | inactive |
| CLN5 | 0.42 | 1.16 | inactive |
| PHB2 | 0.09 | 2.59 | inactive |
| TSHR | 1.04 | 0.86 | inactive |
| CLVS1 | 0.28 | 1.64 | inactive |
| YJU2 | 0.38 | 1.44 | inactive |
| INSRR | 0.49 | 1.32 | inactive |
| ENKUR | 0.66 | 0.98 | inactive |
| ZNF350 | 0.68 | 1.13 | inactive |
| INTS3 | 0.29 | 0.98 | inactive |
| REX1BD | 0.96 | 0.76 | inactive |
| AGMO | 0.49 | 2.43 | inactive |
| ANXA11 | 0.3 | 0.85 | inactive |
| EFR3A | 0.51 | 0.69 | active |
| PLCXD3 | 0.39 | 1.02 | inactive |
| RASGEF1B | 0.69 | 1.5 | inactive |
| MAP2K7 | 0.37 | 0.44 | active |
| ECRG4 | 0.96 | 0.57 | inactive |
| LEP | 1.07 | 0.64 | inactive |
| CYP39A1 | 0.19 | 2.27 | inactive |
| PPP5C | 0.54 | 1.32 | inactive |
| PSMD7 | -0.13 | 2.45 | inactive |
| PON3 | 0.46 | 1.54 | inactive |
